Data on two compounds can be found in PubChem BioAssay AID1420 (Emory University Molecular Libraries Screening Center, 2008).

By UniProt entry, the sequences of proteins in these tests, tags left out. Where a name states a change or a piece, a line headed by the entry shows the natural chain unless it says otherwise.
UniProt P43367: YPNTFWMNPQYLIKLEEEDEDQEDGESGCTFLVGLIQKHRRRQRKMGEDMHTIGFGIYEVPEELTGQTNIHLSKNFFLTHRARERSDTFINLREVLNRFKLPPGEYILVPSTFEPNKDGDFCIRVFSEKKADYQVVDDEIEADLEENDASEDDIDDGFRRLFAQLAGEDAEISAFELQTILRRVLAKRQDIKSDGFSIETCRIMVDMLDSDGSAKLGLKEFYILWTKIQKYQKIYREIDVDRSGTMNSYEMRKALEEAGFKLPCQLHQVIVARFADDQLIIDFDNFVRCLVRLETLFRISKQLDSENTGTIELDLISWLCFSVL

Among all 1,100 compounds or so, about 65 (6%) were called active. The rule behind the calls is not given here. The entries are a selection whose mix differs from that of the whole data set. Measured potencies and affinities stand elsewhere.

The target of the assay is Calpain-2 catalytic subunit (Sus scrofa) (UniProt P43367). The experiment in a line: pig calpain II inhibitor potency, dose response, biochemical, fluorogenic peptide substrate (AID 1420). To be noted: purified calpain II, 30 min; at 50 µM (top of the series).
For `CC(C)Oc1cc(-n2c(=S)[nH]c3ccccc3c2=O)c(Cl)cc1Cl`, the percent of control activity was inactive: 81.9%.

As for `COc1ccc2[nH]c(C)c(CCN3CCC(=O)C(C)C3C)c2c1` (configuration not stated), the percent of control activity is inactive: 93.5%.
